Source: PubChem BioAssay AID1487 (National Center for Advancing Translational Sciences (NCATS), 2009)
Hit rate of the full screen: of about 200,000 compounds, about 25 (0.01%) were called active. The inconclusive results got no clear call from the source; some entries with a clear call stand among them for comparison. Calls follow the shape of the dose curve; as a rule, active = well fitted inhibition curve with a large enough effect in the signal ratio, with a control signal flat (not every such curve was filed as active); inconclusive = small, poorly fitted or top-dose-only effect, or effect the other way, or a change in a side signal; inactive = flat fitted curve, though single readings scatter; the % refers to the signal ratio. Potencies beside an inconclusive call are fits to weak or partial responses and may not hold up.

Assay: qHTS Assay for Modulators of Lamin A Splicing
Conditions: HeLa LMNA splicing GFP/RFP minigene ratio, 48 h; ratio change, negative = inhibition: at 46.1 µM (top of the series) unless noted
In short: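 S3 HeLa stable clones carrying a lamin A-EGFP splicing minigene plus DsRed2 were seeded at 600 cells/well in Opti-MEM with 2% FBS, pin-dosed and incubated 48 h at 37°C. Acumen cytometry (488 nm) gave the GFP/RFP total-intensity ratio.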
% is scaled to controls: 0 for no effect and ±100 for the full control effect; potency is read from the fitted curve at half-maximal effect.

SMILES | ratio change, negative = inhibition | Potency
O=C(COC(=O)c1ccccc1C(=O)N1CCN(c2ccc(F)cc2)CC1)NCc1ccccc1 | inconclusive: -19.9% | –
O=C(c1ccc(F)cc1)C1CCN(CCn2c(=O)[nH]c3ccccc3c2=O)CC1 | inconclusive: -6.97% | –
CCn1nc(C)c2c(-c3ccccc3)cc(=O)n(C(C)C(=O)Nc3cc(C)ccc3C)c21 (configuration not stated) | inconclusive: -12.4% [at 46 µM] | –
CC1CC(C)(C)Nc2ccc(N=O)cc21 (configuration not stated) | inconclusive: -24.8% [at 9.22 µM] | –
Cc1ccc([N+](=O)[O-])cc1N(CC(=O)Nc1ccc(S(=O)(=O)Nc2cccc(C(F)(F)F)c2)cc1)S(C)(=O)=O | inconclusive: -24.7% | –
Cc1nc2ccccc2n1/N=C/c1ccc([N+](=O)[O-])s1 | inconclusive: -16.5% | –
Cc1cn(C)c(CC(=O)Nc2ccc(F)cc2Cl)c1C(=O)O | inactive | –
CCCOc1ccc(-c2cn3ccccc3n2)cc1[N+](=O)[O-] | inconclusive: -25.3% | –
O=C(CSc1cccc2cccnc12)N/N=C/c1ccc(F)cc1 | inconclusive: 3.6% [at 46 µM] | –
CCOC(=O)c1c(C)[nH]c(C)c1C(=O)CSc1nnc(-c2ccncc2)n1Cc1ccccc1 | inactive | –
CCc1nnc(NC(=O)CSc2nc3cccnc3n2C2CCCCC2)s1 | – | inconclusive: 35.5 µM [falling, single point]
Cc1[nH]c2ccc(-c3nnc(SCC(=O)c4ccccc4F)o3)cc2c1C | inconclusive: -21.1% | –
Cc1ccc2oc(=O)n(CC(=O)OC(C)C)c2c1 | inactive | –
O=C(NNC(=O)c1sc2cccc(Cl)c2c1Cl)Nc1ccccc1 | inactive | –
Cc1ccc(Cl)cc1NC(=O)CCCN1C(=O)c2cccnc2C1=O | inconclusive: 9.08% [at 46 µM] | –
CC1=NN2C(=N)/C(=C\c3cc(C)n(-c4ccccc4)c3C)C(=O)N=C2S1 | inconclusive: 7.79% [at 46 µM] | –
COc1ccccc1N1CCN(S(=O)(=O)c2ccc(F)c(C(=O)Nc3ccc(Cl)cc3C(F)(F)F)c2)CC1 | inconclusive: 1.07% [at 46 µM] | –
Cc1c(Br)c(=O)oc2c(Br)c(O)c(O)cc12 | – | inconclusive: 35.5 µM [falling, single point]
CCN1CCN(C2=NC(=O)/C(=C/c3ccc(C)o3)S2)CC1 | inactive | –
Cc1cc(=O)[nH]c(SCc2cc(Cl)ccc2OC(F)F)n1 | inconclusive: -39% | –
O=C(NCc1ccncc1)c1cccc(Cn2cc(Br)cn2)c1 | – | inconclusive: 12.6 µM [fluorescent, single point]

SMILES | ratio change, negative = inhibition | Potency
Fc1ccc(Nc2ccnc(-c3ccc4c(c3)OCO4)n2)cc1 | inconclusive: -4.39% | –
COc1cccc(-c2csc(N3CCN(C(=S)Nc4ccccc4)CC3)n2)c1 | inactive: 18.9% [at 0.0737 µM] | –
COc1ccc(-c2cc(=O)c3c(O)c(OC)c(OC)c(OC)c3o2)cc1 | inactive | –
O=C(CSc1ccc(-c2ccccc2)nn1)N1CCN(c2ccccc2)CC1 | inactive | –
CCCCOc1ccccc1C1CC(=O)Nc2cc(C)c(C)cc21 (configuration not stated) | – | inconclusive: 35.5 µM [cytotoxic, single point]
Cc1ccc(S(=O)(=O)NNC(=O)c2csnn2)cc1 | inactive | –
COc1ccc(Cl)cc1C(=O)Nc1ccc(S(=O)(=O)N2CCCC2)cc1 | inactive | –
COc1ccc(OC)c(C2C(C(=O)c3sc(C)nc3C)=C(O)C(=O)N2CCN2CCOCC2)c1 (configuration not stated) | inactive | –
CCOC(=O)Cn1cc(/C=C/[N+](=O)[O-])c2ccccc21 | inconclusive: -0.849% [at 46 µM] | –
COc1cccc(C2c3[nH]c4ccccc4c3CCN2Cc2cccn2-c2ncccn2)c1 (configuration not stated) | inactive | –
NC1=NC2(CCCCC2)N(c2ccc(F)cc2)C(N)=N1 | inactive | –
Cc1ccccc1-c1ccc2ncnc(N(C)C)c2c1 | inconclusive: -7.11% | –
Cc1ccc(N2C(=O)CSC23C(=O)N(CC(=O)NCc2ccccc2)c2ccccc23)cc1 (configuration not stated) | inactive | –
CC1CC1c1ccc(/C=C(\C#N)C(=O)Nc2ccc(Cl)cc2Cl)o1 (configuration not stated) | – | inconclusive: 35.5 µM [fluorescent, single point]
COc1ccc(NC(=O)CCc2nc(-c3ccc(C)cc3)no2)c(OC)c1 | inactive | –
CCOc1ccc(-n2cc(-c3ccccc3)c3c(NC4CCCC4)ncnc32)cc1 | inconclusive: -14.4% [at 46 µM] | –
CCc1nc2ccccc2c(NC(=O)CN2CCC(C)CC2)c1C | inactive | –
COc1ccc(-n2cc(C(=O)O)c(=O)cc2C)cc1 | inconclusive: 0.461% [at 46 µM] | –
CCN(CC)C(=O)c1ccc(O)c(OC)c1 | inconclusive: -29.1% | –
Cn1nc(-c2ccccc2)c(CSc2ccccc2Cl)c1Cl | inconclusive: -4.24% | –
O=C(O)c1cccnc1SCc1ccccc1Cl | inconclusive: -24.5% [at 46 µM] | –

Arranged by number of heavy atoms (falling): 3 of the compounds above.
SMILES | ratio change, negative = inhibition | Potency
COc1cccc(C2c3[nH]c4ccccc4c3CCN2Cc2cccn2-c2ncccn2)c1 (configuration not stated) | inactive | –
O=C(NCc1ccncc1)c1cccc(Cn2cc(Br)cn2)c1 | – | inconclusive: 12.6 µM [fluorescent, single point]
O=C(O)c1cccnc1SCc1ccccc1Cl | inconclusive: -24.5% [at 46 µM] | –
